Assay results taken from patent US6245742A (Pharmacia & Upjohn S.p.A., priority 1996, dated 2001).

How the values were obtained:
[1] = general procedure: Fmoc solid-phase peptide synthesis; Knorr amide resin (0.45 mmol/g); also Rink MBHA, DOD, Wang, PEG-PS HMPA resin; TBTU/1-hydroxybenzotriazole/DIEA in NMP; Pfp esters; details: whole synthesis, scale of the general procedure 0.25 mmol, polyhydrated polytrifluoroacetates; for final purity (method not given): capillary electrophoresis
peptide synthesis = details: whole synthesis, polyhydrated polytrifluoroacetates
[2] = general procedure: Fmoc solid-phase peptide synthesis; Rink MBHA; TBTU/1-hydroxybenzotriazole/DIEA in NMP; Pfp esters; details: whole synthesis, scale 0.5 mmol, polyhydrated polytrifluoroacetates
[3] = general procedure: Fmoc solid-phase peptide synthesis; Knorr resin; TBTU/1-hydroxybenzotriazole/DIEA in NMP; Pfp esters; details: whole synthesis, scale 0.25 mmol, polyhydrated polytrifluoroacetates
[4] = general procedure: Fmoc solid-phase peptide synthesis; Wang; TBTU/1-hydroxybenzotriazole/DIEA in NMP; Pfp esters; details: whole synthesis, HPLC peak relative integration at 215-220 nm, scale of the general procedure 0.25 mmol, polyhydrated polytrifluoroacetates
[5] = HPLC peak relative integration at 215-220 nm

Row | Substance | final HPLC purity [1, 5] [%] | other results
1 | 6-biotinamido-hexanoyl--Gly--Gly--Gly--Gly--Gly--Ile--Gly--Glu--Bis--Tyr (PO3 B)--Val--His--Val--Asn--Ala--Thr--Tyr(PO3 H)--Val--Asn--Val--Lys--OH |  | final HPLC purity ([1]; 220 nm): 91.5%
2 | 6-biotinamido-hexanoyl--Gly--Gly--Gly--Gly--Gly--Ile--Gly--Glu--His--Tyr-- Val--His--Val--Asn--Ala--Thr--Tyr(PO3 H)--Val--Asn--Val--Lys--OH |  | final HPLC purity (peptide synthesis): 91.8%
3 | 6-biotinamido-hexanoyl-Tyr (PO3 H2)--Val--Asn--Val--NH2 | 98.8 | 
4 | Ac--Phe (CH2 PO3 H2)--Val--Asn--Val--Lys--NH2 | 99.1 | 
5 | Ac--Phe (CH2 SO3 H)--Val--Asn--Val--NH2 | 97.0 | 
6 | Ac--Phe(p--CH2 PO3 H2)--Val--Asn--Val--NH2 | 98.0 | crude mass [2]: 270 mg
7 | Ac--Phe--Val--Asn--Val--OH | 97.6 | 
8 | Ac--Tyr (PO3 H2) --Ile--Asn--Ile--Lys--NH2 | 93.0 | 
9 | Ac--Tyr (PO3 H2)--Ile--Asn--Gln--Ser--NH2 | 99.3 | 
10 | Ac--Tyr (PO3 H2)--Val--Asn--Ile--Glu--NH2 | 99.0 | 
11 | Ac--Tyr (PO3 H2)--Val--Asn--Val--Lys (Ac)--NH2 | 98.9 | 
12 | Ac--Tyr (PO3 H2)--Val--Asn--Val--Lys--NH2 | 96.4 | 
13 | Ac--Tyr (PO3 H2)--Val--Asn--Val--NH2 | 99.9 | isolated mass [3]: 64 mg
14 | Ac--Tyr (PO3 H2)--Val--Asn--Val--OH |  | final HPLC purity [4]: 99.3%
15 | Ac--Tyr (PO3 H2)--Val--Asn--Val--Ser--NH2 | 99.1 | 
16 | Ac--Tyr (PO3 Me2)--Val--Asn--Val--NH2 | 97.0 | 
17 | Ac--Tyr(PO3 Et2)--Val--Asn--Val--NH2 | 90.0 | 
18 | Ac--Tyr(PO3 H2)--Val--Asn--Val--Gln--NH2 | 96.5 | 
19 | Ac--Tyr(PO3 HMe)--Val--Asn--Val--NH2 | 98.0 | 
20 | C6 H11 --CE2 --CO--Tyr(PO3 H2)--Val--Asn--Val--NH2 |  | final purity (method not given) [1]: 75%
21 | CH3 --(CH2)6 --CO--Tyr (PO3 H2)--Val--Asn--Val--NH2 |  | final purity (method not given) [1]: 72%
22 | CH3 --(CH2)12 --CO--Gly--Gly--Tyr(PO3 H2)--Val--Asn--Val--NH2 |  | final purity (method not given) [1]: 95%
23 | CH3 --(CH2)12 --CO--Tyr (PO3 H2)--Val--Asn--Val--NE2 |  | final purity (method not given) [1]: 95%
24 | H--Tyr (PO3 H2)--Val--Asn--Val--Lys--OH | 99.0 | 
